Assay results taken from PubChem BioAssay AID445 (National Center for Advancing Translational Sciences (NCATS), 2006).
The other results are listed elsewhere or left out. Further columns of the screen follow, without active or inactive calls. Most of these compounds were active or inconclusive in the main read-out, so they are no random draw. Words in brackets tell the shape of the fitted curve; partial curves, single points and poor fits give uncertain potencies.

Experiment: IkB Signaling
Settings: ABC-DLBCL IkBa-CBG/CBR dual luciferase ratio (green luciferase fused to IkBa over red control in OCI-Ly3 lymphoma cells), 4 h
Procedure, shortened: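 Curves were fitted separately to fusion (green), unfused (red) and ratio luminescence, then classed by r2, magnitude and activity. Cells: OCI-Ly3, 4 h compound plus doxycycline at 37C; 10 uM MG-132 defined full response.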

[1] = measured here: control luc red channel unless noted

Cc1nn(Cc2ccc(Cl)cc2)c(C)c1NC(=O)c1noc2c1CCc1ccccc1-2
AC50 [1]: 5.01 µM [falling, full curve]

CCN(CC)S(=O)(=O)c1ccc(NC(=O)CCc2c(C)nc3cc(-c4ccc(Cl)cc4)nn3c2C)cc1
AC50 [1]: 0.0631 µM [falling, full curve]

COc1ccc(Cl)cc1NC(=O)CSc1ccc(-c2sc(C)nc2C)nn1
AC50 [1]: 39.8 µM [falling, single point]

Nc1ccc2cc3ccccc3cc2c1
AC50 [1]: 3.16 µM [rising, full curve] [measured here: IkB-luc green channel]

CCOC(=O)c1cc2c(=O)n3ccccc3nc2n(CCCOC)c1=NC(=O)C(C)(C)Oc1ccc(Cl)cc1
AC50 [1]: 20 µM [falling, partial curve]

CCCn1c(NC(=O)C2CCN(S(=O)(=O)c3cccs3)CC2)nc2ccccc21
AC50 [1]: 15.8 µM [falling, partial curve]

CCOC(=O)c1c(C)[nH]c(CCC(=O)NCCCN2CCN(c3cc(C)ccc3C)CC2)c1C
AC50 [1]: 39.8 µM [falling, single point]

Cc1ccc(C)c(NC(=O)CSc2ncc3c(n2)-c2ccc(Cl)cc2N(C)S3(=O)=O)c1
AC50 [1]: 31.6 µM [rising, single point] [measured here: IkB-luc green channel]

O=C(CCSCc1ccccc1Cl)N1CCN(c2cccc(Cl)c2)CC1
AC50 [1]: 31.6 µM [falling, partial curve]

N#CC1=C(N)OC(c2ccccc2)=C(C#N)C1c1ccc2c(c1)OCO2 (stereo not given)
AC50 [1]: 0.794 µM [falling, partial curve]

CCn1nc(-c2ccccc2)c(-c2ccccc2)c(C(=O)Nc2nc(C)c(C(=O)N(C)C)s2)c1=O
AC50 [1]: 31.6 µM [falling, single point]

CCc1nc2cccnc2n1-c1ccc(CC(=O)Nc2ccc(C)cc2)cc1
AC50 [1]: 39.8 µM [falling, single point]

Cc1c(C(=O)Nc2ccc(N3CCOCC3)cc2)oc2ccccc12
AC50 [1]: 25.1 µM [falling, partial curve]

O=C(Cn1c(=O)n(-c2ccccc2Cl)c(=O)c2sc3ccccc3c21)N1CCCC1
AC50 [1]: 0.01 µM [falling, full curve, poor fit]

CCOc1cc2sc(N3CCC(C(=O)Nc4ccc(C)cc4)CC3)nc2cc1Br
AC50 [1]: 1.26 µM [falling, full curve]

COc1ccccc1-c1cc(C(=O)N2CCCCC2)no1
AC50 [1]: 25.1 µM [falling, partial curve]

CCc1ccc(CSc2nc(-c3ccc(OC)cc3)nc3c2Cc2c(CO)cnc(C)c2O3)cc1
AC50 [1]: 2.51 µM [rising, partial curve]

COc1ccc(CNC(=O)CN(c2ccccc2OC)S(=O)(=O)c2ccc(C)cc2)cc1
AC50 [1]: 3.16 µM [falling, partial curve]

CC(=O)Nc1cccc(NC(=O)c2c(-c3c(Cl)cccc3Cl)noc2C)c1
AC50 [1]: 12.6 µM [falling, partial curve]

Cc1ccc(NC(=O)Cn2ncn3c(cc4ccccc43)c2=O)c(C)c1
AC50 [1]: 3.98 µM [rising, full curve]

CCOc1ccc2[nH]c(=O)c(CN(Cc3ccc(F)cc3)C(=O)c3ccco3)cc2c1
AC50 (measured here: IkB-luc green channel): 39.8 µM [falling, single point] | AC50 (measured here: control luc red channel): 39.8 µM [falling, single point]

COc1ccccc1CNC(=O)Cc1csc2nc(-c3ccc(Cl)cc3)cn12
AC50 [1]: 10 µM [falling, partial curve]

CCOc1cc(CNC(=O)c2ccc(C)c(NC(=O)c3nsc4ccccc34)c2)ccc1OC
AC50 [1]: 0.0251 µM [falling, full curve]

Cc1cc(C)cc(NC(=O)CN2C(=O)COc3ccc(S(=O)(=O)Nc4ccccc4)cc32)c1
AC50 [1]: 15.8 µM [falling, partial curve]

COc1ccc(NC(=O)C2CCN(c3cc(-c4ccccc4)nc4ncnn34)CC2)cc1OC
AC50 [1]: 31.6 µM [falling, partial curve]

CCN1CCN(Cc2c(O)ccc3oc(C)c(C(=O)Nc4ccc(OC)c(Cl)c4)c23)CC1
AC50 [1]: 12.6 µM [falling, partial curve]

CCOC(=O)c1ccccc1NC(=O)CSc1nc2ncccc2o1
AC50 [1]: 15.8 µM [falling, partial curve]

Cc1ccc2nc(-c3ccncc3)c(Nc3ccccc3C)n2c1
AC50 [1]: 39.8 µM [falling, single point]

CC1=C(c2ccc(C)cc2)S(=O)(=O)N=C1N1CCN(c2ccccc2)CC1
AC50 [1]: 31.6 µM [falling, single point]

Nc1ccc(C(=O)OCc2nc3ccccc3[nH]2)cc1
AC50 [1]: 2 µM [falling, partial curve]

Cc1ccc(CSC2=Nc3ccccc3C3=NC(CC(=O)NC4CCCCC4)C(=O)N23)c(C)c1 (stereo not given)
AC50 [1]: 12.6 µM [falling, partial curve]

CCC(C)NC(=O)c1cn(CC)c2ccc(S(=O)(=O)N3CCCCC3)cc2c1=O (stereo not given)
AC50 [1]: 7.94 µM [falling, partial curve]

Cc1ccc(NS(=O)(=O)c2ccc3c4c(cccc24)C(=O)N3)c(C)c1
AC50 [1]: 20 µM [falling, partial curve]

Cc1cc(Nc2cccc(C(F)(F)F)c2)ncn1
AC50 [1]: 2.51 µM [rising, partial curve]

CCN1C(=O)C(C(=O)Nc2ccc(OC)cc2)C2CC1(C)Oc1ccccc12 (stereo not given)
AC50 [1]: 3.98 µM [falling, full curve]

Cc1ccc(-c2nc3sccn3c2Nc2ccccc2C)cc1
AC50 [1]: 25.1 µM [falling, partial curve]

O=C(NC1CCCCC1)N(Cc1nc2ccccc2c(=O)[nH]1)C1CCCCC1
AC50 [1]: 20 µM [falling, partial curve]

CSCCC(NS(=O)(=O)c1ccc2c(c1)oc(=O)n2C)C(=O)N1CCN(c2cc(Cl)ccc2C)CC1 (stereo not given)
AC50 [1]: 10 µM [falling, partial curve]

CCN(CCCNC(=O)c1cc2cc3cc(OC)ccc3nc2s1)c1cccc(C)c1
AC50 [1]: 10 µM [falling, partial curve]
